± gives the standard deviation of the averaged measurements. The entries are a selection whose mix differs from that of the whole data set.

Protein sequences, listed by entry. Tags and fused reporters are not part of them. Lines headed by an entry give the natural chain unless they say otherwise; changes in a name come on top.
UniProt Q86UA1: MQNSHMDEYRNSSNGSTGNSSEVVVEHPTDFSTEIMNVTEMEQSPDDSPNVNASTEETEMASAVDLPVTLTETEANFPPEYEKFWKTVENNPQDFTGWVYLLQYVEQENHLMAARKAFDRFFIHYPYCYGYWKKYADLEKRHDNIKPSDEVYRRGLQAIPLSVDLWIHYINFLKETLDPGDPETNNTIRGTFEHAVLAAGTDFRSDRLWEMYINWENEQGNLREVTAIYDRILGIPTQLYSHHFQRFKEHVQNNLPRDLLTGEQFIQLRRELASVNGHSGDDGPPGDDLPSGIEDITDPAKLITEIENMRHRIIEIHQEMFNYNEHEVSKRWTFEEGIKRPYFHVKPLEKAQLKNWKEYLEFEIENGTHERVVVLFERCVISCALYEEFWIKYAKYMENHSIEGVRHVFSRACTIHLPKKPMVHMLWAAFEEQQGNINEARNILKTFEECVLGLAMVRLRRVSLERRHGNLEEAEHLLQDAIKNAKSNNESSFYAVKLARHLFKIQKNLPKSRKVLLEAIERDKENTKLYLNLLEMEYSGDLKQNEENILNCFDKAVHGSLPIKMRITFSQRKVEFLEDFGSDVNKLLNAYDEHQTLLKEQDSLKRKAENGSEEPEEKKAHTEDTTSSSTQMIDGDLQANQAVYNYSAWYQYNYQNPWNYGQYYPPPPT
UniProt Q86UE8, whole entry, looked up: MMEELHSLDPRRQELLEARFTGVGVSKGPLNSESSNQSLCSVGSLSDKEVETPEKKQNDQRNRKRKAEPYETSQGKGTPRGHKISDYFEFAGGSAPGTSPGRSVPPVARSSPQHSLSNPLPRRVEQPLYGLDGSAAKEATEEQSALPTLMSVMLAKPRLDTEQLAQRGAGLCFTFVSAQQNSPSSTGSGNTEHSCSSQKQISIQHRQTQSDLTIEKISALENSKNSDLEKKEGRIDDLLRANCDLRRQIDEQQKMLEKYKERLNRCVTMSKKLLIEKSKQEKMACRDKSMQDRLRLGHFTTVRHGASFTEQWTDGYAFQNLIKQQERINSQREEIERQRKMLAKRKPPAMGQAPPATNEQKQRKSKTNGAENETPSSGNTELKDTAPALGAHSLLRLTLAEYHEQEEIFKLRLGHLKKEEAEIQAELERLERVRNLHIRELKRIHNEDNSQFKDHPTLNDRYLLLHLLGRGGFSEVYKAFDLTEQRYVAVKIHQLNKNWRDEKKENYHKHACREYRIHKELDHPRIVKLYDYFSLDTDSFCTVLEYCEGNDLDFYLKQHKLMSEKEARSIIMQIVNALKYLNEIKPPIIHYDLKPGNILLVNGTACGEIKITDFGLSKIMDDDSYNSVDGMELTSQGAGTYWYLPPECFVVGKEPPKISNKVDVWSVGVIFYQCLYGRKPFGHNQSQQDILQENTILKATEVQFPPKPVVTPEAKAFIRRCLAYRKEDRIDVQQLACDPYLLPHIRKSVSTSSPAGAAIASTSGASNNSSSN
UniProt Q8IUD2: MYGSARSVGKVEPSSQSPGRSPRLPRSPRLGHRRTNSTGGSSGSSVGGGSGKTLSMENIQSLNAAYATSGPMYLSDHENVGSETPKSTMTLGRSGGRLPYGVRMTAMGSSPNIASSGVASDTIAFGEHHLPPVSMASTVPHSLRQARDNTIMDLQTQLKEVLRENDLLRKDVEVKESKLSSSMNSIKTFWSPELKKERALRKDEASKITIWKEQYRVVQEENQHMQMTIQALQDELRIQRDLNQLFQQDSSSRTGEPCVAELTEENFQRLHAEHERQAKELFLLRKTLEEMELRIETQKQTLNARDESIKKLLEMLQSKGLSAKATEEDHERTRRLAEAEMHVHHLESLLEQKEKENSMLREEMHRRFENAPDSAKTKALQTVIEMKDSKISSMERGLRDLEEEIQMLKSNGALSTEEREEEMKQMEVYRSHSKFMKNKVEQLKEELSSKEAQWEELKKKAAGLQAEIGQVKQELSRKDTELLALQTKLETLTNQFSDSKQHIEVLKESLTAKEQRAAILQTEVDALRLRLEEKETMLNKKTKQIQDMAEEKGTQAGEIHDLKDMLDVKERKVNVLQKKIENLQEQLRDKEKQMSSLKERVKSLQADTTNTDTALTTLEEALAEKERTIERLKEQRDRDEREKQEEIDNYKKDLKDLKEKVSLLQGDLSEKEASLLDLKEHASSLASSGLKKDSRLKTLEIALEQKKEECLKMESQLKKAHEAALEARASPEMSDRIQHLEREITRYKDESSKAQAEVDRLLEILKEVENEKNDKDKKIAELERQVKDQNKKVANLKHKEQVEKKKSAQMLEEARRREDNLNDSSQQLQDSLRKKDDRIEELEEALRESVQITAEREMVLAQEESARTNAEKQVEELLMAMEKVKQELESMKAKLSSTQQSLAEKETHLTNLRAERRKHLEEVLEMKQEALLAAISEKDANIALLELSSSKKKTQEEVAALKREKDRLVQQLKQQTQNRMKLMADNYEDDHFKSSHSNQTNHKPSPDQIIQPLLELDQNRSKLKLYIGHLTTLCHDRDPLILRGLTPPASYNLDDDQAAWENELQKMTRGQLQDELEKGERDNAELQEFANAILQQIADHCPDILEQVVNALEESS
UniProt Q86TN4: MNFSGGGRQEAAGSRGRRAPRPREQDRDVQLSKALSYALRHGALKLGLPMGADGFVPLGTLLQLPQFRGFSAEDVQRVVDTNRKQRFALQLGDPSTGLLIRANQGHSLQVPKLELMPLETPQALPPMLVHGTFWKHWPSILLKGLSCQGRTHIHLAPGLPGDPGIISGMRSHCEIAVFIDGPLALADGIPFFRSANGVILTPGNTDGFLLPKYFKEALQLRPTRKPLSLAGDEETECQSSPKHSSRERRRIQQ
UniProt Q7Z7A1: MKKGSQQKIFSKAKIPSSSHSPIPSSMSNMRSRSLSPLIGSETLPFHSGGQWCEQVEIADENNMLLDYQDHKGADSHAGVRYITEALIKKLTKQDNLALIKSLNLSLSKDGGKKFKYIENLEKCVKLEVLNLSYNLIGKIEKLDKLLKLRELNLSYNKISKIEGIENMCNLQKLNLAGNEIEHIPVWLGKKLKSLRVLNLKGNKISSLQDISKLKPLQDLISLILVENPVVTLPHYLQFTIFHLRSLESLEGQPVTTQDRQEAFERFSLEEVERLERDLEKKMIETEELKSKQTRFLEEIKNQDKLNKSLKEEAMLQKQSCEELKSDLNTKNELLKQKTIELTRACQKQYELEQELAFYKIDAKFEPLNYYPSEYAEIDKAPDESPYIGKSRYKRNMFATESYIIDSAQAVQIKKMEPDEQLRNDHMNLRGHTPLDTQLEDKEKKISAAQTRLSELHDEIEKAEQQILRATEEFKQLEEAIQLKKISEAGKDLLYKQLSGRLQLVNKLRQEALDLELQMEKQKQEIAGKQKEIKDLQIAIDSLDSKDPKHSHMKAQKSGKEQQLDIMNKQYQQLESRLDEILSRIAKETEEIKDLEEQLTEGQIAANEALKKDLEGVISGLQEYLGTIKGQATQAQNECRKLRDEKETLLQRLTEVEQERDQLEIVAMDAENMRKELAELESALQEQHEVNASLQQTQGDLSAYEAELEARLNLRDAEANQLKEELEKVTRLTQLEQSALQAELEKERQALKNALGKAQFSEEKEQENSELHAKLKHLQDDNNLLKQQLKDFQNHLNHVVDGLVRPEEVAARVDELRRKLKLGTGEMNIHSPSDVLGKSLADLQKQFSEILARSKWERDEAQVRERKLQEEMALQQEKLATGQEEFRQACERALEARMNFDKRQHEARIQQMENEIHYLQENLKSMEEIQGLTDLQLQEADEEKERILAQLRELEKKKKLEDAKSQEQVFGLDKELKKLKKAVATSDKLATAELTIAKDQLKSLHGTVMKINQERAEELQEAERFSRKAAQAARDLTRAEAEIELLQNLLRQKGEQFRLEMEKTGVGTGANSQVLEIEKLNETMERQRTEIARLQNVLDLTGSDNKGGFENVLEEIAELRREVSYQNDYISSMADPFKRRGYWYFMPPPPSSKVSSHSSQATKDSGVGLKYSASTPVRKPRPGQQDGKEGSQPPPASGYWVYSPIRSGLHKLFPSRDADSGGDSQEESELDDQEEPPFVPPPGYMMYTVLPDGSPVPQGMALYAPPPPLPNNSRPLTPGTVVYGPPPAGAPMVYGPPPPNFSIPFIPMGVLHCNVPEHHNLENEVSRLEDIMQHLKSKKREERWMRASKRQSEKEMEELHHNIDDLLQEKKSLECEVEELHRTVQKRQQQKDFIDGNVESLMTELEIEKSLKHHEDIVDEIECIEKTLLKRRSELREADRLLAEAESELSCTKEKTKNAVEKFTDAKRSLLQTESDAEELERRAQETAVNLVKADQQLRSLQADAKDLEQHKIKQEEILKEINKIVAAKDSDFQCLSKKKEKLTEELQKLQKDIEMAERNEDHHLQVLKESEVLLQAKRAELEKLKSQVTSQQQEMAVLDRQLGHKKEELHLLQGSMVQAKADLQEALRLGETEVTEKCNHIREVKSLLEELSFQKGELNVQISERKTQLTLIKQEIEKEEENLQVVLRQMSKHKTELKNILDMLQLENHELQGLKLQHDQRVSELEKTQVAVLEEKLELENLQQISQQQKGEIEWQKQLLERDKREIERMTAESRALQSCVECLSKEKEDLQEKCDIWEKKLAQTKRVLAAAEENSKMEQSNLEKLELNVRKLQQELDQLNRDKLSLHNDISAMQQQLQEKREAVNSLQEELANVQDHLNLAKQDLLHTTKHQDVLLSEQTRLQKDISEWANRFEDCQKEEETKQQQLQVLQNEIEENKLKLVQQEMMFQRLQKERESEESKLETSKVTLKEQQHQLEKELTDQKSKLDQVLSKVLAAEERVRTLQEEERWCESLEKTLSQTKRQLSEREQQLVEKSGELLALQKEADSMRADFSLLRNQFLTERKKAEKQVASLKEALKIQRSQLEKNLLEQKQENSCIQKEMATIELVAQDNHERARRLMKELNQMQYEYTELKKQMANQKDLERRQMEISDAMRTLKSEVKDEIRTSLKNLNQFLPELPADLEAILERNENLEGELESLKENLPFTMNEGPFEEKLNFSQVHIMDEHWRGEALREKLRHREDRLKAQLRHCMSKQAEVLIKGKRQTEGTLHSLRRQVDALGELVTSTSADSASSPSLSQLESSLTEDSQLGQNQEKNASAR
UniProt Q86X76: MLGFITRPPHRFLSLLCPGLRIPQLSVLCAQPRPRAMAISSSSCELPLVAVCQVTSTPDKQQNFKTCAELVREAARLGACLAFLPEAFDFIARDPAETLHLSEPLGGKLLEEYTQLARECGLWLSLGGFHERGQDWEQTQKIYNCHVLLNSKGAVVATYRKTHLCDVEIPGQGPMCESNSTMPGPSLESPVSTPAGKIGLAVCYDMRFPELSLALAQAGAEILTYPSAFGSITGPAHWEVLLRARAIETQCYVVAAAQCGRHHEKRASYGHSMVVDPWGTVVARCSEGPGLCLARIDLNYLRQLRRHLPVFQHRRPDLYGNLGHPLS
UniProt Q86U70: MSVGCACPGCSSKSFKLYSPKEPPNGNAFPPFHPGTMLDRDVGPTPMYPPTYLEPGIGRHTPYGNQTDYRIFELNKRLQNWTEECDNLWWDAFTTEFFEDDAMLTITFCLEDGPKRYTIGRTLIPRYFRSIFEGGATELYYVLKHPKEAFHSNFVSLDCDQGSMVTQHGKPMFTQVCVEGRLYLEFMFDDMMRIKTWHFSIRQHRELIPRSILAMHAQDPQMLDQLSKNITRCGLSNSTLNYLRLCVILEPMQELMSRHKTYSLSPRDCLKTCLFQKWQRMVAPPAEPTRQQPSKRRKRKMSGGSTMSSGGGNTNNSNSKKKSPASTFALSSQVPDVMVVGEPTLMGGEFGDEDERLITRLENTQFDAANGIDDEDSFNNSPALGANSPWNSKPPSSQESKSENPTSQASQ
UniProt Q8NBF6: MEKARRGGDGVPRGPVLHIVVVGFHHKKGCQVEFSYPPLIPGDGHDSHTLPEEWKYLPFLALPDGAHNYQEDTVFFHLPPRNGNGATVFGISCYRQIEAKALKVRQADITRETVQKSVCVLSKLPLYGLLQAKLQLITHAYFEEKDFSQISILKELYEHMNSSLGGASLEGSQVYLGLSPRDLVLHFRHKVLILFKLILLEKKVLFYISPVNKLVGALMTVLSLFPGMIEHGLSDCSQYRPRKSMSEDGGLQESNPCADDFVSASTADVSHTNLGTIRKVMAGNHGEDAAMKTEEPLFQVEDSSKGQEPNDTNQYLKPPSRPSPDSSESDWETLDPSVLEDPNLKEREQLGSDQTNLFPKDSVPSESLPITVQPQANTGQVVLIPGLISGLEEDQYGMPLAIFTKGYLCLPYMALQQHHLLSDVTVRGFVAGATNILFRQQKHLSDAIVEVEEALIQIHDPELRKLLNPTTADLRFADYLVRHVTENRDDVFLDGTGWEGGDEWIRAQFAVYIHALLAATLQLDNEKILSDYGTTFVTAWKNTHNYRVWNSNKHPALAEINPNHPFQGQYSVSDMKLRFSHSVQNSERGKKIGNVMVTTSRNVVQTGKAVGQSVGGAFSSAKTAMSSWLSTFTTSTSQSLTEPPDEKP

Compound in one experiment: Nc1ncnc2c1ncn2[C@@H]1O[C@H](COP(=O)(O)OP(=O)(O)NP(=O)(O)O)[C@@H](O)[C@H]1O [adenylyl imidodiphosphate]
The experiment is described as follows: NP40-soluble protein abundance relative to vehicle (solubility fold change) (ratio); higher = more soluble protein in presence of AMP-PNP. The following applies: concentration: 8mM. The essentials:
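Jurkat crude lysate (Dounce-homogenised) was treated with eight concentrations from 0.1 to 10 mM for 10 min at room temperature, then 3 min at 37 °C. It was solubilised with 0.8% NP40 and benzonase (60 min, 4 °C) and ultracentrifuged, and the supernatant was TMT-labelled for LC-MS/MS. Intensities were vsn-normalised, and the value is the fold change against the NP40-processed vehicle per replicate, from three independent experiments.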
For the target UniProt Q8N8A2 and related entries, the NP40-soluble protein abundance came to 0.91 ± 0.013.

Take UniProt Q8N4L2 and related entries: the NP40-soluble protein abundance is 1.01 ± 0.07.

In the case of ZBTB2 (UniProt Q8N680), the NP40-soluble protein abundance was 0.997 ± 0.053.

In the case of PRPF39 (UniProt Q86UA1), the NP40-soluble protein abundance was found to be 0.996 ± 0.048.

Consider UniProt Q86UE8-2|Q86UE8-3|J3QLK5, for which the NP40-soluble protein abundance was determined as 0.994 ± 0.022.

Take UniProt Q8N4J0: the NP40-soluble protein abundance came out at 1.02 ± 0.048.

Consider C5orf24 (UniProt Q7Z6I8), for which the NP40-soluble protein abundance was found to be 0.974 ± 0.021.

UniProt Q86SK9 and related entries: the NP40-soluble protein abundance amounted to 0.976 ± 0.023.

Take UniProt Q8N684 and related entries: the NP40-soluble protein abundance stood at 1.11 ± 0.029.

Regarding UniProt Q8IUD2 and related entries, the NP40-soluble protein abundance stood at 0.9781 ± 0.0069.

Regarding UniProt Q8N1K5 and related entries, the NP40-soluble protein abundance was 0.924 ± 0.0099.

In the case of HPS6 (UniProt Q86YV9), the NP40-soluble protein abundance is 0.9728 ± 0.0074.

Take CCDC82 (UniProt Q8N4S0): the NP40-soluble protein abundance amounted to 1.06 ± 0.084.

With RCOR2 (UniProt Q8IZ40), the NP40-soluble protein abundance came to 1.02 ± 0.052.

Consider UniProt Q8IV53 and related entries, for which the NP40-soluble protein abundance came out at 0.983 ± 0.015.

Regarding DCUN1D3 (UniProt Q8IWE4), the NP40-soluble protein abundance turned out to be 0.9813 ± 0.0054.

For UniProt Q8N5U6 and related entries, the NP40-soluble protein abundance is 0.995 ± 0.056.

Consider UniProt Q86X10 and related entries, for which the NP40-soluble protein abundance came to 0.945 ± 0.015.

As to USP48 (UniProt Q86UV5), the NP40-soluble protein abundance came out at 0.972 ± 0.049.

As for UniProt Q86TN4 and related entries, the NP40-soluble protein abundance stood at 1.16 ± 0.042.

In the case of UniProt Q8IZM8, the NP40-soluble protein abundance stood at 1 ± 0.018.

As to UniProt Q8IYH5 and related entries, the NP40-soluble protein abundance worked out at 0.942 ± 0.044.

Consider PIAS4 (UniProt Q8N2W9), for which the NP40-soluble protein abundance was 1.03 ± 0.047.

On to ZNF579 (UniProt Q8NAF0), for which the NP40-soluble protein abundance is 1.05 ± 0.058.

UniProt Q7Z7A1 and related entries: the NP40-soluble protein abundance is 0.9496 ± 0.0093.

As to UniProt Q8N4C8 and related entries, the NP40-soluble protein abundance worked out at 1.02 ± 0.024.

On to UniProt Q8N5C7 and related entries, for which the NP40-soluble protein abundance was 0.995 ± 0.06.

On to GCC2 (UniProt Q8IWJ2), for which the NP40-soluble protein abundance worked out at 0.966 ± 0.013.

In the case of UniProt Q8NBJ4 and related entries, the NP40-soluble protein abundance worked out at 0.977 ± 0.011.

As to UniProt Q86X76 and related entries, the NP40-soluble protein abundance was found to be 1.15 ± 0.098.

As for UniProt Q86YS7, the NP40-soluble protein abundance stood at 0.919 ± 0.015.

With UniProt Q86V48 and related entries, the NP40-soluble protein abundance turned out to be 1.08 ± 0.026.

Regarding UniProt Q86U70 and related entries, the NP40-soluble protein abundance was 0.98 ± 0.011.

For UniProt Q8N1G2, the NP40-soluble protein abundance worked out at 1.01 ± 0.026.

In the case of UniProt Q8IUH4 and related entries, the NP40-soluble protein abundance came to 0.932 ± 0.02.

For UniProt Q8N7H5 and related entries, the NP40-soluble protein abundance was 0.986 ± 0.025.

For the target LIX1L (UniProt Q8IVB5), the NP40-soluble protein abundance worked out at 0.994 ± 0.025.

Regarding SRBD1 (UniProt Q8N5C6), the NP40-soluble protein abundance was determined as 1.07 ± 0.033.

In the case of UniProt Q8NBF6 and related entries, the NP40-soluble protein abundance is 0.963 ± 0.019.

On to LRRC47 (UniProt Q8N1G4), for which the NP40-soluble protein abundance came out at 1.08 ± 0.034.

Staying with this experiment, now noted: concentration: 10mM.
Regarding UniProt Q8N8A2 and related entries, the NP40-soluble protein abundance is 0.883 ± 0.032.

UniProt Q8N4L2 and related entries: the NP40-soluble protein abundance worked out at 0.987 ± 0.029.

Regarding ZBTB2 (UniProt Q8N680), the NP40-soluble protein abundance was determined as 0.998 ± 0.076.

Turning to PRPF39 (UniProt Q86UA1), the NP40-soluble protein abundance was found to be 1.03 ± 0.021.

As to UniProt Q86UE8-2|Q86UE8-3|J3QLK5, the NP40-soluble protein abundance was found to be 0.992 ± 0.02.

With UniProt Q8N4J0, the NP40-soluble protein abundance was determined as 0.973 ± 0.04.

As for C5orf24 (UniProt Q7Z6I8), the NP40-soluble protein abundance worked out at 0.992 ± 0.011.

Take UniProt Q86SK9 and related entries: the NP40-soluble protein abundance stood at 0.98 ± 0.053.

Regarding UniProt Q8N684 and related entries, the NP40-soluble protein abundance came out at 1.19 ± 0.037.

As for UniProt Q8IUD2 and related entries, the NP40-soluble protein abundance is 0.9884 ± 0.0061.

In the case of UniProt Q8N1K5 and related entries, the NP40-soluble protein abundance came to 0.88 ± 0.03.

Take HPS6 (UniProt Q86YV9): the NP40-soluble protein abundance was found to be 0.9453 ± 0.0044.

For CCDC82 (UniProt Q8N4S0), the NP40-soluble protein abundance worked out at 1.11 ± 0.024.

In the case of RCOR2 (UniProt Q8IZ40), the NP40-soluble protein abundance was 1.06 ± 0.021.

In the case of UniProt Q8IV53 and related entries, the NP40-soluble protein abundance was 0.995 ± 0.013.

In the case of DCUN1D3 (UniProt Q8IWE4), the NP40-soluble protein abundance was determined as 0.966 ± 0.03.

In the case of UniProt Q8N5U6 and related entries, the NP40-soluble protein abundance is 0.991 ± 0.062.

For UniProt Q86X10 and related entries, the NP40-soluble protein abundance worked out at 0.934 ± 0.049.

Regarding USP48 (UniProt Q86UV5), the NP40-soluble protein abundance is 0.958 ± 0.048.

With UniProt Q86TN4 and related entries, the NP40-soluble protein abundance came to 1.13 ± 0.019.

Consider UniProt Q8IZM8, for which the NP40-soluble protein abundance was determined as 1.01 ± 0.019.

As for UniProt Q8IYH5 and related entries, the NP40-soluble protein abundance amounted to 0.966 ± 0.013.

On to PIAS4 (UniProt Q8N2W9), for which the NP40-soluble protein abundance amounted to 1.02 ± 0.033.

Consider ZNF579 (UniProt Q8NAF0), for which the NP40-soluble protein abundance was 1.04 ± 0.085.

In the case of UniProt Q7Z7A1 and related entries, the NP40-soluble protein abundance stood at 0.989 ± 0.045.

Consider UniProt Q8N4C8 and related entries, for which the NP40-soluble protein abundance turned out to be 1.08 ± 0.05.

Regarding UniProt Q8N5C7 and related entries, the NP40-soluble protein abundance was 0.978 ± 0.068.

GCC2 (UniProt Q8IWJ2): the NP40-soluble protein abundance stood at 0.983 ± 0.023.

In the case of UniProt Q8NBJ4 and related entries, the NP40-soluble protein abundance is 0.975 ± 0.035.

Regarding UniProt Q86X76 and related entries, the NP40-soluble protein abundance is 1.14 ± 0.06.

For UniProt Q86YS7, the NP40-soluble protein abundance worked out at 0.948 ± 0.018.

With UniProt Q86V48 and related entries, the NP40-soluble protein abundance is 1.13 ± 0.013.

In the case of UniProt Q86U70 and related entries, the NP40-soluble protein abundance was found to be 0.991 ± 0.02.

On to UniProt Q8N1G2, for which the NP40-soluble protein abundance amounted to 0.9463 ± 0.0023.

UniProt Q8IUH4 and related entries: the NP40-soluble protein abundance was found to be 0.966 ± 0.077.

As for UniProt Q8N7H5 and related entries, the NP40-soluble protein abundance was 1.02 ± 0.023.

Take LIX1L (UniProt Q8IVB5): the NP40-soluble protein abundance was found to be 0.98 ± 0.042.

Take SRBD1 (UniProt Q8N5C6): the NP40-soluble protein abundance was found to be 1.14 ± 0.043.

On to UniProt Q8NBF6 and related entries, for which the NP40-soluble protein abundance amounted to 0.955 ± 0.023.

Regarding LRRC47 (UniProt Q8N1G4), the NP40-soluble protein abundance worked out at 1.1 ± 0.06.

These data come from the supplement of paper PMC6411743.
